Data as given in patent US20100036088A1, “Selective poly-N-substituted glycine antibiotics” (priority 2008, published 2010).
Values after ≈ are worked out from the molar mass of the structure shown. Part of at least one peptide drawing is inferred or uncertain, most often the ends. Square brackets hold non-standard residues; d marks the D form. Peptide text beside a SMILES is read from it. Nrpe = C[C@@H](NCC(=O)O)c1ccccc1; Nspe = C[C@H](NCC(=O)O)c1ccccc1; Nlys = NCCCCNCC(=O)O

What was measured:
[1] = RP-HPLC elution solvent composition as measure of molecular hydrophobicity; assay type: physicochemical; conditions: for HPLC elution (% ACN): Table 5, average of three injections, linear 5%-95% acetonitrile/water (0.1% TFA) over 45 minutes, measure of hydrophobicity; for HPLC elution solvent: Table 1, percent acetonitrile in water, 0.1% (v/v) TFA at HPLC elution
Text: An initial set of 15 ampetoid analogs was synthesized to determine whether peptoids are affected by structural and sequence modifications in a manner consistent with AMP activities. The designs for ampetoids in this library were derived from two antibacterial and selective amphipathic dodecamers, 1 and 2. Peptoid 1 [H-(Nlys-Nspe-Nspe)4—NH2] is composed of 2/3 Nspe, the peptoid analog of phenylalanine, and 1/3 Nlys, the peptoid analog of lysine (see FIG. 1 for the structures of representative peptoid monomers and corresponding N-substituents). Peptoid 2 [H-(Nlys-Nssb-Nspe)4—NH2] contains 1/3 isoleucine-like Nssb monomers in place of Nspe. The variant sequences were designed to effect changes in chirality, length, hydrophobicity, charge, and amphipathicity. All of these compounds were tested for antibacterial activity against representative BSL1 Gram-negative (E. coli JM109) and Gram-positive (B. subtilis BR151) bacterial strains. As an initial measure of selectivity, the lytic activity of the peptoids was determined against human erythrocytes. Table 1 summarizes the sequences synthesized, the solvent composition at RP-HPLC elution as a relative measure of molecular hydrophobicity, and antibacterial and hemolytic activities.
Following synthesis, peptoid oligomers can be cleaved from the resin, simultaneously removing the tert-butoxycarbonyl (Boc) protecting group from Nlys residues, by treatment with 10 ml 2,2,2-trifluoroacetic acid (TFA)/triisopropylsilane/H2O (95:2.5:2.5 by volume) for 30 min. The cleavage mixture is then diluted with 25 ml 50% aqueous acetonitrile, frozen, and lyophilized. Dilution and lyophilization is repeated twice more in order to remove excess TFA. Subsequent to cleavage, peptoids are each purified to >97% homogeneity by preparative scale reversed-phase HPLC using a Waters Prep LC 4000 system, with Waters 2487 dual-wavelength UV detection, and gradient elution (solvent A, 0.1 vol % trifluoroacetic acid (TFA) in water; solvent B, 0.1 vol % TFA in acetonitrile) through a Vydac (Hysperia, Calif.) 214TP101550 C4 peptide/protein column (10-15 μm, 300 Å, 5×25 cm). Following prep HPLC, peptoid purities and crude yields were determined from analytical scale HPLC, performed with a Waters 2695 Separations Module with a Waters 2487 dual-wavelength UV detector and gradient elution (solvent A, 0.1 vol % TFA in water; solvent B, 0.1 vol % TFA in acetonitrile) through a Vydac C4 214TP53 peptide/protein column (5 μm, 300 Å, 3.2×250 mm). The precise gradient employed for HPLC depended on the identity and hydrophobicity of the oligomer in question. All analytical HPLC was performed at 0.5 ml/min flow and 58° C. Preparative HPLC was performed at 50 ml/min flow and room temperature.

[2] = system: Proteus vulgaris ATCC 49132; assay type: cell-based; conditions: Table 7A
Method: (§1) Antibacterial assays. MICs were determined according to CLSI M7-A6 protocols in a 96-well microtiter plate. In test wells, 50 μL bacterial inoculum (5×10^5 CFU/ml) in Mueller-Hinton broth (MHB) was added to 50 μL peptoid solution in MHB (prepared by 1:2 serial dilutions). Positive controls contained 50 μL inoculum and 50 μL MHB without peptoid. […] MIC values reported were reproducible between three independent experimental replicates, each consisting of two parallel trials. Broad-spectrum antimicrobial susceptibility testing was performed against BSL2 pathogens by Nova Biologicals, Inc. (Conroe, Tex.).
(§2) Broad-spectrum antibacterial assays. MICs of compounds were determined by microdilution procedure in Mueller-Hinton broth (MHB) in accordance with CLSI M7-A6 protocols in a manner similar to that described for the screen antibacterial assays. Inoculated microtiter plates were incubated at 35° C. for 24 hours prior to the result being recorded. Four ATCC strains that were used as standards are recommended by CLSI: Pseudomonas aeruginosa ATCC 27853, Escherichia coli ATCC 25922, Staphylococcus aureus ATCC 29213 and Enterococcus faecalis ATCC 29212. Other strains from the ATCC collection include Proteus vulgaris ATCC 49132, Proteus mirabilis ATCC 35659, Klebsiella pneumoniae ATCC 33495, Enterobacter aerogenes ATCC 35029 and Serratia marcescens ATCC 13880. S. aureus NRS100 (COL) is a well characterized methicillian-resistant S. aureus (MRSA) strain. The strains S. aureus VAN1 and S. aureus VAN2, vancomycin-resistant MRSA strains that were isolated in Michigan and Pennsylvania, were the first vancomycin-resistant strains clinically isolated. S. aureus NRS119 and S. aureus NRS120 are linezolid-resistant isolates from the Network on Antimicrobial Resistance in S. aureus (NARSA) collection. E. faecalis 99 and E. faecium 106 are vancomycin-resistant enterococcal strains.

[3] = system: Enterobacter aerogenes ATCC 35029; assay type: cell-based; conditions: Table 7A
Method: as §1, §2

[4] = system: Staphylococcus aureus NRS120; assay type: cell-based; conditions: Table 7A; linezolid-resistant
Method: as §1, §2

[5] = system: Enterococcus faecalis ATCC 29212; assay type: cell-based; conditions: Table 7A
Method: as §1, §2

[6] = system: Pseudomonas aeruginosa ATCC 27853; assay type: cell-based; conditions: Table 7A
Method: as §1, §2

[7] = system: Staphylococcus aureus VAN1; assay type: cell-based; conditions: Table 7A; MRSA, vancomycin-resistant
Method: as §1, §2

Enterococcus faecalis 99 = assay type: cell-based; conditions: Table 7A
Method: as §1, §2

[8] = system: Staphylococcus aureus NRS100 (COL); assay type: cell-based; conditions: Table 7A; MRSA
Method: as §1, §2

[9] = system: Klebsiella pneumoniae ATCC 33495; assay type: cell-based; conditions: Table 7A
Method: as §1, §2

Enterococcus faecium 106 = assay type: cell-based; conditions: Table 7A
Method: as §1, §2

[10] = system: Staphylococcus aureus ATCC 29213; assay type: cell-based; conditions: Table 7A
Method: as §1, §2

[11] = system: Staphylococcus aureus NRS119; assay type: cell-based; conditions: Table 7A; linezolid-resistant
Method: as §1, §2

[12] = system: Escherichia coli ATCC 25922; assay type: cell-based; conditions: Table 7A
Method: as §1, §2

[13] = system: Serratia marcescens ATCC 13880; assay type: cell-based; conditions: Table 7A
Method: as §1, §2

[14] = system: Staphylococcus aureus VAN2; assay type: cell-based; conditions: Table 7A; MRSA, vancomycin-resistant
Method: as §1, §2

[15] = system: Staphyloccus aureus (ATCC #25923); assay: Murine intraperitoneal infection model; assay type: in vivo; conditions: mouse, 4 mg/kg I.P. four hours post infection, 24 hours
Method: Using a murine peritoneal injection mouse model, the ability of peptoids to treat infection was evaluated in vivo. The results from three separate studies of peptoid 1 and two of peptoid 1-Nhis6,12 against saline treated controls are shown in FIG. 7. The horizontal line represents the geometric mean of each population.
Murine intraperitoneal infection model. Bacteria was prepared by inoculating 5 mL of MHB with a single colony of Staphyloccus aureus (ATCC #25923) from a freshly streaked plate and grown overnight at 37 C. The following morning, the bacteria was subcultured by diluting 1/3 in MHB and grown for approximately 1.5 hours. The bacteria were then diluted 10-fold in a 5% mucin in PBS solution and thoroughly mixed. A sample was reserved to later determine the amount of bacteria the mice received.
Mice were weighed, marked, and injected I.P. with 200 uL of S. aureus inoculum. Four hours post infection, mice were treated I.P. with 4 mg/kg peptoid (˜100 ug per mouse). The infection is allowed to proceed overnight. Mice were euthanized by CO2 asphyxiation after 24 hours, and the peritoneal cavity was exposed and lavaged with 5 mL PBS. The lavage was mixed and reserved on ice until plating. […] Colonies were counted the following day, and the CFU/ml of each sample was calculated. […]

Compound: C[C@H](c1ccccc1)N(CC(=O)N(CCCCN)CC(=O)N(CC(=O)N(CC(=O)N(CCCCN)CC(=O)N(CC(=O)N(CC(=O)N(CCCCN)CC(=O)N(CC(=O)N(CC(N)=O)[C@@H](C)c1ccccc1)[C@@H](C)c1ccccc1)[C@@H](C)c1ccccc1)[C@@H](C)c1ccccc1)[C@H](C)c1ccccc1)[C@H](C)c1ccccc1)C(=O)CN(C(=O)CNCCCCN)[C@H](C)c1ccccc1 [1-Nrpe2,3,5,6, H-(Nlys-Nrpe-Nrpe)2-(Nlys-Nspe-Nspe)2-NH2] (H-[Nlys][Nrpe][Nrpe][Nlys][Nrpe][Nrpe][Nlys][Nspe][Nspe][Nlys][Nspe][Nspe]-NH2)
- HPLC elution (% ACN) ([1]; C18 column): 65.0 % ACN

Compound: C[C@H](c1ccccc1)N(CC(N)=O)C(=O)CN(C(=O)CN(CCCCN)C(=O)CN(C(=O)CN(C(=O)CN(CCCCN)C(=O)CN(C(=O)CN(C(=O)CN(CCCCN)C(=O)CN(C(=O)CN(C(=O)CNCCCCN)[C@@H](C)c1ccccc1)[C@H](C)c1ccccc1)[C@@H](C)c1ccccc1)[C@H](C)c1ccccc1)[C@@H](C)c1ccccc1)[C@H](C)c1ccccc1)[C@@H](C)c1ccccc1 [1-Nrpe3,6,9,12, H-(Nlys-Nspe-Nrpe)4-NH2]
- HPLC elution (% ACN) ([1]; C18 column): 63.5 % ACN

Compound: C[C@@H](c1ccccc1)N(CC(N)=O)C(=O)CN(C(=O)CN(CCCCN)C(=O)CN(C(=O)CN(C(=O)CN(CCCCN)C(=O)CN(C(=O)CN(C(=O)CN(CCCCN)C(=O)CN(C(=O)CN(C(=O)CNCCCCN)[C@@H](C)c1ccccc1)[C@@H](C)c1ccccc1)[C@@H](C)c1ccccc1)[C@@H](C)c1ccccc1)[C@@H](C)c1ccccc1)[C@@H](C)c1ccccc1)[C@@H](C)c1ccccc1 [compound 1, H-(NLys-Nspe-Nspe)4-NH2] (H-[Nlys][Nspe][Nspe][Nlys][Nspe][Nspe][Nlys][Nspe][Nspe][Nlys][Nspe][Nspe]-NH2)
- MIC P. vulgaris ATCC 49132 [2]: 32 µg/mL (≈ 17.6 µM)
- MIC E. aerogenes ATCC 35029 [3]: 16 µg/mL (≈ 8.79 µM)
- MIC S. aureus NRS120 [4]: 8 µg/mL (≈ 4.4 µM)
- MIC E. faecalis ATCC 29212 [5]: 4 µg/mL (≈ 2.2 µM)
- MIC P. aeruginosa ATCC 27853 [6]: 8 µg/mL (≈ 4.4 µM)
- MIC S. aureus VAN1 [7]: 4 µg/mL (≈ 2.2 µM)
- MIC E. faecalis 99 (Enterococcus faecalis 99): 8 µg/mL (≈ 4.4 µM)
- MIC S. aureus NRS100 (COL) [8]: 4 µg/mL (≈ 2.2 µM)
- MIC K. pneumoniae ATCC 33495 [9]: 16 µg/mL (≈ 8.79 µM)
- MIC E. faecium 106 (Enterococcus faecium 106): 4 µg/mL (≈ 2.2 µM)
- MIC S. aureus ATCC 29213 [10]: 4 µg/mL (≈ 2.2 µM)
- MIC S. aureus NRS119 [11]: 4 µg/mL (≈ 2.2 µM)
- MIC E. coli ATCC 25922 [12]: 4 µg/mL (≈ 2.2 µM)
- MIC S. marcescens ATCC 13880 [13]: 128 µg/mL (≈ 70.4 µM)
- MIC S. aureus VAN2 [14]: 4 µg/mL (≈ 2.2 µM)
- HPLC elution solvent [1]: 48%
- HPLC elution ([1]; Table 2, percent acetonitrile in H2O, C18 column, 0.1% TFA, pH 1): 48%
- HPLC elution (% ACN) ([1]; C18 column): 65.1 % ACN
- bacterial counts from the peritoneal lavage versus saline treated controls [15]: significantly reduced

Compound: C[C@H](c1ccccc1)N(CC(=O)N(CC(N)=O)[C@@H](C)c1ccccc1)C(=O)CN(CCCCN)C(=O)CN(C(=O)CN(C(=O)CN(CCCCN)C(=O)CN(C(=O)CN(C(=O)CN(CCCCN)C(=O)CN(C(=O)CN(C(=O)CNCCCCN)[C@H](C)c1ccccc1)[C@@H](C)c1ccccc1)[C@H](C)c1ccccc1)[C@@H](C)c1ccccc1)[C@H](C)c1ccccc1)[C@@H](C)c1ccccc1 [1-Nrpe2,5,8,11, H-(Nlys-Nrpe-Nspe)4-NH2] (H-[Nlys][Nrpe][Nspe][Nlys][Nrpe][Nspe][Nlys][Nrpe][Nspe][Nlys][Nrpe][Nspe]-NH2)
- HPLC elution (% ACN) ([1]; C18 column): 66.4 % ACN

Compound: C[C@H](c1ccccc1)N(CC(N)=O)C(=O)CN(C(=O)CN(CCCCN)C(=O)CN(C(=O)CN(C(=O)CN(CCCCN)C(=O)CN(C(=O)CN(C(=O)CN(CCCCN)C(=O)CN(C(=O)CN(C(=O)CNCCCCN)[C@H](C)c1ccccc1)[C@H](C)c1ccccc1)[C@H](C)c1ccccc1)[C@H](C)c1ccccc1)[C@H](C)c1ccccc1)[C@H](C)c1ccccc1)[C@H](C)c1ccccc1 [1enantiomer]
- HPLC elution solvent [1]: 48%
